No constants are given. Whether binding was seen depends on the method and setting. Some results given as binding are weak or reduced against the parent protein; the word gives no strength.
How the values were obtained:
Assay in all cases: glycopeptide microarray (20-mer MUC1 Tn-glycopeptides printed on a chip), RFU as heat map
[1] = target: T1, …
T1 sequence (peptide, S13 and T14 carry GalNAc (Tn), bold and underlined on the sheet): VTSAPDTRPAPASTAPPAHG

[2] = target: T2, …; remark: listed apart in the source
T2 sequence (peptide, T14 carries GalNAc (Tn), bold and underlined on the sheet): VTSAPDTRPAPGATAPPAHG

[3] = target: T3, …; remark: listed apart in the source
T3 sequence (peptide, S13 and T14 carry GalNAc (Tn), bold and underlined on the sheet): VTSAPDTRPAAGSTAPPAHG

[4] = target: T4, …; remark: listed apart in the source
T4 sequence (peptide, S13 and T14 carry GalNAc (Tn), bold and underlined on the sheet): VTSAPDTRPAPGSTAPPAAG

[5] = target: T5, …; remark: listed apart in the source
T5 sequence (peptide, S13 and T14 carry GalNAc (Tn), bold and underlined on the sheet): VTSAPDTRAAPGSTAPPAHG

[6] = target: T6, …; remark: listed apart in the source
T6 sequence (peptide, S13 and T14 carry GalNAc (Tn), bold and underlined on the sheet): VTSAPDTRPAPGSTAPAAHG

Measured: binding

B1: scFv 5E5 (scFv, V domains shown)
VH: QSDAELVKPGSSVKISCKASGYTFTDHAIHWVKQKPEQGLEWIGHFSPGNTDIKYNDKFKGKATLTVDRSSSTAYMQLNSLTSEDSAVYFCKTSTFFFDYWGQGTTLTVSS
VL: ELVMTQSPSSLTVTAGEKVTMICKSSQSLLNSGDQKNYLTWYQQKPGQPPKLLIFWASTRESGVPDRFTGSGSGDFTLTISSVQAEDLAVYYCQNDYSYPLTFGAGTKLELK
binds: all assays above

Reference: patent US20240309110A1
